These are yes or no findings as the source states them, for the method shown. For part of these data: In cells and extracts the contact can be indirect. Some results given as binding are weak or reduced against the parent protein; the word gives no strength.
Columns and labels:
[1] = target: SdrE expressed on the surface of Lactococcus lactis (pKS80-SdrE) (S. aureus) (UniProt O86489); assay: binding to whole bacteria in solution, SDS extraction, Western blot; L. lactis in GVBS^++ with 20% HI-serum, 1 hr, 37°C; bound proteins extracted with 2% SDS; anti-fH Western blot
[2] = target: Serine-aspartate repeat-containing protein E (SdrE) of S. aureus strain Reynolds, native cell wall protein (S. aureus strain Reynolds (endogenous)) (UniProt O86489); assay: cross-linking; 1×10^9 S. aureus Reynolds cells with 10 µg purified fH, 1 hr, PBS, 37°C; 50 µM BS^3 for 30 mins; cell wall extract, SDS-PAGE, anti-fH Western blot; fH-containing band identified by LC-ESI-MS/MS; only the binder purified
[3] = target: Serine-aspartate repeat-containing protein E (SdrE) of S. aureus strain Reynolds, native cell wall protein (S. aureus strain Reynolds (endogenous)) (UniProt O86489); assay: far-Western, overlay or dot blot; S. aureus cell wall protein fractions (size-exclusion and ionic exchange chromatography) resolved by SDS-PAGE, blotted, overlaid with purified fH (20 µg fH/10 ml 3% BSA/TBST) overnight at 4°C, anti-fH detection; bands that bound fH excised and identified by LC-ESI-MS/MS; only the binder purified

Sequences of proteins named here, by UniProt entry; tags and fusion partners are left off. Residues count along the entry.
UniProt O86489, residues 53-1132: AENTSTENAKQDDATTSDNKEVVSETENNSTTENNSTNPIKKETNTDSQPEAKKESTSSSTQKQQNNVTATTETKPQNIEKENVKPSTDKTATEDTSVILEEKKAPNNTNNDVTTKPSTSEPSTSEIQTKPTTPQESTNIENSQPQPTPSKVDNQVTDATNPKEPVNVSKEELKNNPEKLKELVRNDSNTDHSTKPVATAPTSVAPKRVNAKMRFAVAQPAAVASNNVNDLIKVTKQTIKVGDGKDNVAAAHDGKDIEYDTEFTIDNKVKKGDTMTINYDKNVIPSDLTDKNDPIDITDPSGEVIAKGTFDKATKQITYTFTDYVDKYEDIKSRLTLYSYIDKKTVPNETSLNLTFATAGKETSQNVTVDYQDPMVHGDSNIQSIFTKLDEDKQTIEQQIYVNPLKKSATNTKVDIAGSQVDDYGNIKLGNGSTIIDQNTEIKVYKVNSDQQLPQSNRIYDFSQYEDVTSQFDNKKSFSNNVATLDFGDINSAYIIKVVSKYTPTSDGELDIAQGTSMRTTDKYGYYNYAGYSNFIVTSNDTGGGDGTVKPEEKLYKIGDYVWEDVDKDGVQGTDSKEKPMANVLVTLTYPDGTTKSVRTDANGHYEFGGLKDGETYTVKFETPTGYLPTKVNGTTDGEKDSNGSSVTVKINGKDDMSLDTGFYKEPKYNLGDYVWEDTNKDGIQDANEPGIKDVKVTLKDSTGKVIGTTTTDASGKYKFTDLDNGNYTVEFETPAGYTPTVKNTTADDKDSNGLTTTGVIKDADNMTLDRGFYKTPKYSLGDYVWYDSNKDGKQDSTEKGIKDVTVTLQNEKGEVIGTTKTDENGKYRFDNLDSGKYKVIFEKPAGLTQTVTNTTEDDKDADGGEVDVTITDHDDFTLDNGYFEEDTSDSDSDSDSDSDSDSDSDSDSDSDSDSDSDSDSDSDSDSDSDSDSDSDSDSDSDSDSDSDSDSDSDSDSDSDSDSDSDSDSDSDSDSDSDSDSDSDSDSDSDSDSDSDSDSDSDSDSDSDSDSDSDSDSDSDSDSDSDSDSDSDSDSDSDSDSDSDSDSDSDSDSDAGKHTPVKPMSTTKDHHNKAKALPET
UniProt P08603, residues 19-1231: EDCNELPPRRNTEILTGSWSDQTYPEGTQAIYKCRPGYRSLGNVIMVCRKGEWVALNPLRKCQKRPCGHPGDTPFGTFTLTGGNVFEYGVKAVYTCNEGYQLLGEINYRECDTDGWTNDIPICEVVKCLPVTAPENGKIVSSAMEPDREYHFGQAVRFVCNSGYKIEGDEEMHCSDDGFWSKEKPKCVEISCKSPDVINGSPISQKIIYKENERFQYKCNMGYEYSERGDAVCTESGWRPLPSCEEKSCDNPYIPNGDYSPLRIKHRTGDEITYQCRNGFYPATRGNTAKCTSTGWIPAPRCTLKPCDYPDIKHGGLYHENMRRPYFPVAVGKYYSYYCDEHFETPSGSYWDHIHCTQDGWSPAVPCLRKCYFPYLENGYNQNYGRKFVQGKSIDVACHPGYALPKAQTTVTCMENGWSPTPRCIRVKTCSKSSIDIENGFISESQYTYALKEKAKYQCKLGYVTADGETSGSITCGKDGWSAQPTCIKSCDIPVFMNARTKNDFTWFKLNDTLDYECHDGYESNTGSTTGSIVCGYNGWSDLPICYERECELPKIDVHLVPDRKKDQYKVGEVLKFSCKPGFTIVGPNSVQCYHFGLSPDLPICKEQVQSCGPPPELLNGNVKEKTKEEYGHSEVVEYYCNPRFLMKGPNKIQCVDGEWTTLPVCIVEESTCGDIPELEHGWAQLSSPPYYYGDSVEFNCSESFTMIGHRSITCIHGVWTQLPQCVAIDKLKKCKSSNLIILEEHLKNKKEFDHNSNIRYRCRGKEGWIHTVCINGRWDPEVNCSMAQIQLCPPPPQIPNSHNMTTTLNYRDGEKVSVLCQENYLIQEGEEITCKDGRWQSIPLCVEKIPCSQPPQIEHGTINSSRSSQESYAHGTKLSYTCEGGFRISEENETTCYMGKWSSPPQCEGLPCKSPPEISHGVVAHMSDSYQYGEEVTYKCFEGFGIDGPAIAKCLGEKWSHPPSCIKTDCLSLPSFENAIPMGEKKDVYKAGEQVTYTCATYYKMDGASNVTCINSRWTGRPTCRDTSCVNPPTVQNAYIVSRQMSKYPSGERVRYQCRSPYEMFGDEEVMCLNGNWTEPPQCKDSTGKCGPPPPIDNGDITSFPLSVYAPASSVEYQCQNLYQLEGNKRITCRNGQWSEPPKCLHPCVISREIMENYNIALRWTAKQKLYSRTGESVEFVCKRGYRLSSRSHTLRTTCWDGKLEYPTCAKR

Measured: binding

complement regulatory protein factor H (from UniProt P08603 19-1231)
binds: all assays above
